Laboratory results from publication PMC4391845.
These are yes or no findings as the source states them, for the method shown. For some of these results: Binding seen in cells or lysates may run through a third protein. Some binding calls cover weakened binding; strength is not graded here. For some of these results: Where a sequence is shown, tags or fusion partners need not be part of it.

Legend:
PBX1(1–308) (human) [1] = target: T1, PBX1(1–308) (human) (UniProt P40424); assay: SEC; co-purified complex on Superose 6 10/300, 20 mM Tris pH 7.4, 0.3 M NaCl, 5% glycerol, 0.5 mM EDTA, 1 mM DTT, 0.3 ml/min; fractions on SDS PAGE; both purified
T1 sequence: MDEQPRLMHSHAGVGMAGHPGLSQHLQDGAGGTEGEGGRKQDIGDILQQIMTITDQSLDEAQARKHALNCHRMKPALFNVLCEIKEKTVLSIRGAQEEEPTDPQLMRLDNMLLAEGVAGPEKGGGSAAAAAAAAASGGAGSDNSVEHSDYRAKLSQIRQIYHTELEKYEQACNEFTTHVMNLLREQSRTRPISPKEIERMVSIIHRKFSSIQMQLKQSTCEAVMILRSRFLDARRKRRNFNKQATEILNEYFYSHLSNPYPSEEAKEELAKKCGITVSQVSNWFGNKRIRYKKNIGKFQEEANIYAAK

PBX1(1–317) (human) [2] = target: T2, PBX1(1–317) (human) (UniProt P40424); assay: as above
T2 sequence: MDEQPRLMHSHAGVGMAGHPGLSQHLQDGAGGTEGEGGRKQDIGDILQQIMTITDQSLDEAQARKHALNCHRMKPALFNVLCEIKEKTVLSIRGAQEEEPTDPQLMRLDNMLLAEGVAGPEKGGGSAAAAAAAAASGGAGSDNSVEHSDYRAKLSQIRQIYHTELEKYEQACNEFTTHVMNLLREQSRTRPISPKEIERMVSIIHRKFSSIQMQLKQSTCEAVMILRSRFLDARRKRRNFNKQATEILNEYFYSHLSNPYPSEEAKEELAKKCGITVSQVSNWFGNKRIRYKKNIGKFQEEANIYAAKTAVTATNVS

GST-PBX1(1–317) (human) = target: T3, GST-PBX1(1–317) (human) (UniProt P40424); assay: pull-down; co-purification from E. coli co-expressing GST-PBX1 and PREP1 on glutathione-sepharose 4B beads; lysis buffer 20 mM Tris pH 7.4, 1 M NaCl, 10% glycerol; washes with 0.5 M and 0.3 M NaCl; eluted by PreScission cleavage
T3 sequence: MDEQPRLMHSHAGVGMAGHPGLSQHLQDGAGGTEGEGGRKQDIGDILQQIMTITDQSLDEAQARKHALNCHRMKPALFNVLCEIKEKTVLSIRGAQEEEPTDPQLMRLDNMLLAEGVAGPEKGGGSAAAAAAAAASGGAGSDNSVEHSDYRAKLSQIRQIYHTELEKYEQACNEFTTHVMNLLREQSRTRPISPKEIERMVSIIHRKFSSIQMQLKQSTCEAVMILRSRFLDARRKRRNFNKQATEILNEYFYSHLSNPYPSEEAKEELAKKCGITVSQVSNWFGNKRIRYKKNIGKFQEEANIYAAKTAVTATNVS

GST-PBX1(1–308) (human) = target: T4, GST-PBX1(1–308) (human) (UniProt P40424); assay: as above
T4 sequence: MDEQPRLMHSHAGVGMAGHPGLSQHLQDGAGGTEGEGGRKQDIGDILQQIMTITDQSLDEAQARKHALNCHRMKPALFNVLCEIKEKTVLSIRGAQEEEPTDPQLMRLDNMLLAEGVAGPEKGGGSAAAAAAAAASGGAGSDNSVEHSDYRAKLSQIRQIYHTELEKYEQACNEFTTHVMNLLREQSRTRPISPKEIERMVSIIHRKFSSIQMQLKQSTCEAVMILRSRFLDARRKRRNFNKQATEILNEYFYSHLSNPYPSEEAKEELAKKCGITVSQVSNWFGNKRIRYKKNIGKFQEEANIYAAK

PBX1(1–308) (human) [3] = target: T1, PBX1(1–308) (human); assay: ion exchange chromatography (co-elution); co-purified GST-free truncated complexes on Resource S cation exchange column, 20 mM Tris pH 7.4, 0.1–1.0 M NaCl gradient; fractions on SDS PAGE; both purified
PBX1(1–317) (human) [4] = target: T2, PBX1(1–317) (human); assay: as above
PBX1(1–308) (human) [5] = target: T1, PBX1(1–308) (human); assay: SEC-MALS; static light scattering (Viscotek GPCmax, three detectors) after two TSKgel G3000PWxl columns, 20 mM Tris pH 7.2, 200 mM NaCl, 5% glycerol, 1 mM TCEP; complex loaded at 1.5 mg/ml, without and with 11 bp DNA; both purified
[6] = target: T5, PBX1(1–430) full-length (human) (UniProt P40424); assay: ion exchange chromatography (co-elution); co-purified GST-free full-length complex on Resource Q anion exchange column, 20 mM Tris pH 7.4, 0.1–1.0 M NaCl gradient; fractions on SDS PAGE; both purified
T5 sequence: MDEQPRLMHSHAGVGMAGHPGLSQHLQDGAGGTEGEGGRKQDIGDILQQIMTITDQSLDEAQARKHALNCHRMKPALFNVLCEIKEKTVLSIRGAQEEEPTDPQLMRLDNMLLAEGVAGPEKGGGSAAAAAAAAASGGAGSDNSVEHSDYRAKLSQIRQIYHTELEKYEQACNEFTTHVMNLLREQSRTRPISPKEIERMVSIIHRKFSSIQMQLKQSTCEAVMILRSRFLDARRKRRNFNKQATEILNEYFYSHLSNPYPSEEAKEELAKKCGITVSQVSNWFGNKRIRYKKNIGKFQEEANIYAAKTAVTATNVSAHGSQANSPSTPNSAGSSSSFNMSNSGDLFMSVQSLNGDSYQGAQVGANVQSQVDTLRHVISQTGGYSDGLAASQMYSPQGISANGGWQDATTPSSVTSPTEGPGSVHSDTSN

[7] = target: T5, PBX1(1–430) full-length (human); assay: SEC; co-purified complex on Superose 6 10/300, 20 mM Tris pH 7.4, 0.3 M NaCl, 5% glycerol, 0.5 mM EDTA, 1 mM DTT, 0.3 ml/min; fractions on SDS PAGE; both purified
[8] = target: T6, GST-PBX1(1–430) full-length (human) (UniProt P40424); assay: pull-down; co-purification from E. coli co-expressing GST-PBX1 and PREP1 on glutathione-sepharose 4B beads; lysis buffer 20 mM Tris pH 7.4, 1 M NaCl, 10% glycerol; washes with 0.5 M and 0.3 M NaCl; eluted by PreScission cleavage
T6 sequence: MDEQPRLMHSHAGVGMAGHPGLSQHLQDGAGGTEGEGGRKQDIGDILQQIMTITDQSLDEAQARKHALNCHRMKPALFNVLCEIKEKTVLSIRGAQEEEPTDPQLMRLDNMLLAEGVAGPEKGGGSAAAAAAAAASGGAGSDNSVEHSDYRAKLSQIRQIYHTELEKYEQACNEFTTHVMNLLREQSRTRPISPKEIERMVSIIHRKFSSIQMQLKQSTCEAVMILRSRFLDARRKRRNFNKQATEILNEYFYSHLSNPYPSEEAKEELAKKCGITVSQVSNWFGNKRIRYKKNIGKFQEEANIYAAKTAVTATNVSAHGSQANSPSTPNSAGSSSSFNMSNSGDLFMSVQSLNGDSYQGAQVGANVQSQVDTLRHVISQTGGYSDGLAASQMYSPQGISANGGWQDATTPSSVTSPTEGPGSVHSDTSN

Measured: binding

B1: PREP1(1–344) (domain or fragment, UniProt P55347 1-344)
chain: MMATQTLSIDSYQDGQQMQVVTELKTEQDPNCSEPDAEGVSPPPVESQTPMDVDKQAIYRHPLFPLLALLFEKCEQSTQGSEGTTSASFDVDIENFVRKQEKEGKPFFCEDPETDNLMVKAIQVLRIHLLELEKVNELCKDFCSRYIACLKTKMNSETLLSGEPGSPYSPVQSQQIQSAITGTISPQGIVVPASALQQGNVAMATVAGGTVYQPVTVVTPQGQVVTQTLSPGTIRIQNSQLQLQLNQDLSILHQDDGSSKNKRGVLPKHATNVMRSWLFQHIGHPYPTEDEKKQIAAQTNLTLLQVNNWFINARRRILQPMLDSSCSETPKTKKKTAQNRPVQR
not listed: [6] | [7] | [8]
binds: all other assays above

B2: PREP1(1–436) full-length (protein, UniProt P55347 1-436)
chain: MMATQTLSIDSYQDGQQMQVVTELKTEQDPNCSEPDAEGVSPPPVESQTPMDVDKQAIYRHPLFPLLALLFEKCEQSTQGSEGTTSASFDVDIENFVRKQEKEGKPFFCEDPETDNLMVKAIQVLRIHLLELEKVNELCKDFCSRYIACLKTKMNSETLLSGEPGSPYSPVQSQQIQSAITGTISPQGIVVPASALQQGNVAMATVAGGTVYQPVTVVTPQGQVVTQTLSPGTIRIQNSQLQLQLNQDLSILHQDDGSSKNKRGVLPKHATNVMRSWLFQHIGHPYPTEDEKKQIAAQTNLTLLQVNNWFINARRRILQPMLDSSCSETPKTKKKTAQNRPVQRFWPDSIASGVAQPPPSELTMSEGAVVTITTPVNMNVDSLQSLSSDGATLAVQQVMMAGQSEDESVDSTEEDAGALAPAHISGLVLENSDSLQ
binds: [6] | [7] | [8]
